In assay [1] the target is BMPR2 on human breast cancer cells (PDX tumor cells, MDA-MB-231) (human) (UniProt Q13873). Put plainly: proximity ligation assay on sorted PDX cells (FIG. 7A-B).
Assay [2] has the same target. Put plainly: proximity ligation assay on sorted PDX cells.
In the next assay the target is BMPR1A (UniProt P36895). Put plainly: proximity ligation assay (the assay is not given).

Amino acid sequences for entries named in this document (tags omitted). Residues count along the entry.
UniProt Q13873, residues 27-1038: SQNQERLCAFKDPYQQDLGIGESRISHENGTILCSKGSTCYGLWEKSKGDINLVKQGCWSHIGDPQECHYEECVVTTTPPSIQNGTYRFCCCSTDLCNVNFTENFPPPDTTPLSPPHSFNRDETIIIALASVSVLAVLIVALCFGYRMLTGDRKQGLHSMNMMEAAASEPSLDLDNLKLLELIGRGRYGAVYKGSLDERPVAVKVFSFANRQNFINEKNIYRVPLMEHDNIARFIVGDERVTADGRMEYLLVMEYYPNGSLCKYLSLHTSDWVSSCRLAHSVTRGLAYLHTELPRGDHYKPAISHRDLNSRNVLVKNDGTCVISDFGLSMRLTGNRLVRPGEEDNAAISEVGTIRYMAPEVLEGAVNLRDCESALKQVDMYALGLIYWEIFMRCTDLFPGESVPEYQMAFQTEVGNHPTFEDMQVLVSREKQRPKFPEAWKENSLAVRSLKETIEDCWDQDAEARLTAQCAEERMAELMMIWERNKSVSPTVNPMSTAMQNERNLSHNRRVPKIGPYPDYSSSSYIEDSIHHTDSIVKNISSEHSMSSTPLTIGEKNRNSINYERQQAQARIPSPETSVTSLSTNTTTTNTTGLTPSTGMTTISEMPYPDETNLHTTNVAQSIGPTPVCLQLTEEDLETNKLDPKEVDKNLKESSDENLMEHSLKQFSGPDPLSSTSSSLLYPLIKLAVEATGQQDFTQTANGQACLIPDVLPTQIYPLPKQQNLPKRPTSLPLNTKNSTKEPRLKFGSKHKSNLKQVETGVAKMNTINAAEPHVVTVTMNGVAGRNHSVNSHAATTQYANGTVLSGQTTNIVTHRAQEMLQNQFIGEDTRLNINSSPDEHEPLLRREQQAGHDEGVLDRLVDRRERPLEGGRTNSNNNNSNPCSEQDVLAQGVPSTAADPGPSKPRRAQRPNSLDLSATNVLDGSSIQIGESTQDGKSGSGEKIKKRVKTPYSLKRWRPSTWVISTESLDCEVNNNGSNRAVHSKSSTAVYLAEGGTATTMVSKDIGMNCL
UniProt P36895, residues 24-532: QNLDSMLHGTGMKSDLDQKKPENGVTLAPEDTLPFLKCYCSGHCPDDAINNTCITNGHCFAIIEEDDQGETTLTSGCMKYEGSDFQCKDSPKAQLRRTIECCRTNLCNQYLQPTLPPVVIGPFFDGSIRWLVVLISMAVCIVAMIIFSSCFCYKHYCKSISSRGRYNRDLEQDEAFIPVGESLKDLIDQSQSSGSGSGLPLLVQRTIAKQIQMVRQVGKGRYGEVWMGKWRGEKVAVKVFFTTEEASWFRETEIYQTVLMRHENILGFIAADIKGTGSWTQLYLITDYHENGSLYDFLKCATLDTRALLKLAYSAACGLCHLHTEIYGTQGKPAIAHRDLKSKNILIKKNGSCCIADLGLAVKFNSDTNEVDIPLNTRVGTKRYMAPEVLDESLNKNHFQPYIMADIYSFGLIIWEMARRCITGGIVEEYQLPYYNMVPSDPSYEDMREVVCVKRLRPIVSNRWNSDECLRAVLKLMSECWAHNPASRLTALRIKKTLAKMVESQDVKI

No constants are given. Whether binding was seen depends on the method and setting. Binding seen in cells or lysates may run through a third protein. Some results given as binding are weak or reduced against the parent protein; the word gives no strength.

B1: human left-right determination factor 1 LEFTY1 (UniProtKB O75610, LFTY1_HUMAN) (ligand)
chain: RFSQSFREVAGRFLALEASTHLLVFGMEQRLPPNSELVQAVLRLFQEPVPKAALHRHGRLSPRSARARVTVEWLRVRDDGSNRTSLIDSRLVSVHESGWKAFDVTEAVNFWQQLSRPRQPLLLQVSVQREHLGPLASGAHKLVRFASQGAPAGLGEPQLELHTLDLGDYGAQGDCDPEAPMTEGTRCCRQEMYIDLQGMKWAENWVLEPPGFLAYECVGTCRQPPEALAFKWPFLGPRQCIASETDSLPMIVSIKEGGRTRPQVVSLPNMRVQKCSCASDGALVPRRLQP
For B1, the binding result in assay [1] and in assay [2] was “binds” throughout.

B2: LEFTY1 (recombinant mouse Lefty1 protein, R&D Systems, catalog number 994-LF) (ligand, UniProt Q64280 78-368, looked up)
chain: FSQNLREVAGRFLVSETSTHLLVFGMEQRLPPNSELVQAVLRLFQEPVPRTALRRQKRLSPHSARARVTIEWLRFRDDGSNRTALIDSRLVSIHESGWKAFDVTEAVNFWQQLSRPRQPLLLQVSVQREHLGPGTWSSHKLVRFAAQGTPDGKGQGEPQLELHTLDLKDYGAQGNCDPEAPVTEGTRCCRQEMYLDLQGMKWAENWILEPPGFLTYECVGSCLQLPESLTSRWPFLGPRQCVASEMTSLPMIVSVKEGGRTRPQVVSLPNMRVQTCSCASDGALIPRRLQP
For B2, the binding entry with BMPR1A is given as “binds”.

These data come from patent US20240368259A1.
